Results as given in doi:10.1101/672824.
Results are given in words; binding and its absence hold for the method and conditions named. In cells and extracts the contact can be indirect. Some binding calls cover weakened binding; strength is not graded here. For some assays here: Tags and fused reporters may be left off the sequences shown.

Chains of the proteins cited; added tags and fusions are not shown.
UniProt P22091: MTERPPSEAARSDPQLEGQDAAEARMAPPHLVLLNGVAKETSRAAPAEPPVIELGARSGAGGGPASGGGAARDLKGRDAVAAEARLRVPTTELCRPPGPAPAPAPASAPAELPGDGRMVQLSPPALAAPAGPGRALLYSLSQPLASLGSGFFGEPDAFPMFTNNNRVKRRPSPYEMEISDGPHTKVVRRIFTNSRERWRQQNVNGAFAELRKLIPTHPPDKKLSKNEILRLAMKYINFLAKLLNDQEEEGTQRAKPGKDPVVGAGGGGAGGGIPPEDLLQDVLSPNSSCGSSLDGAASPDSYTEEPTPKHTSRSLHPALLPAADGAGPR
UniProt Q61079: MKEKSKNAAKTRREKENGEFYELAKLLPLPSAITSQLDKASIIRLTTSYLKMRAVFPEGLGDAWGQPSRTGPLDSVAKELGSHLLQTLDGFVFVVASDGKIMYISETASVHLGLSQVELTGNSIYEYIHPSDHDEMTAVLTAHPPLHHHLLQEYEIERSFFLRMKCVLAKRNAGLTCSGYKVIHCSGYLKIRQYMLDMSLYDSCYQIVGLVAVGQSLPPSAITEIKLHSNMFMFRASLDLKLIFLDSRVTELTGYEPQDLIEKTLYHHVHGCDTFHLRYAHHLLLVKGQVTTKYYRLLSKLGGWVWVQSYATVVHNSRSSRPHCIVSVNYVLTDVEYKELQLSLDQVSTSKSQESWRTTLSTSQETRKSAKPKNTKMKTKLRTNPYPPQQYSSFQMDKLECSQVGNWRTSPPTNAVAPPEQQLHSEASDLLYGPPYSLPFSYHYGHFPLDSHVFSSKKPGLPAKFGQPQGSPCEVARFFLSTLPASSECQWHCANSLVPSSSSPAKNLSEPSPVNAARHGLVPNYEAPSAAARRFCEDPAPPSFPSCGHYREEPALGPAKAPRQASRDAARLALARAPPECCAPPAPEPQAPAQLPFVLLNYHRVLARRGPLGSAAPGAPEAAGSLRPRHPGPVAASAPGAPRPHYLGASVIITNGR
UniProt O08791: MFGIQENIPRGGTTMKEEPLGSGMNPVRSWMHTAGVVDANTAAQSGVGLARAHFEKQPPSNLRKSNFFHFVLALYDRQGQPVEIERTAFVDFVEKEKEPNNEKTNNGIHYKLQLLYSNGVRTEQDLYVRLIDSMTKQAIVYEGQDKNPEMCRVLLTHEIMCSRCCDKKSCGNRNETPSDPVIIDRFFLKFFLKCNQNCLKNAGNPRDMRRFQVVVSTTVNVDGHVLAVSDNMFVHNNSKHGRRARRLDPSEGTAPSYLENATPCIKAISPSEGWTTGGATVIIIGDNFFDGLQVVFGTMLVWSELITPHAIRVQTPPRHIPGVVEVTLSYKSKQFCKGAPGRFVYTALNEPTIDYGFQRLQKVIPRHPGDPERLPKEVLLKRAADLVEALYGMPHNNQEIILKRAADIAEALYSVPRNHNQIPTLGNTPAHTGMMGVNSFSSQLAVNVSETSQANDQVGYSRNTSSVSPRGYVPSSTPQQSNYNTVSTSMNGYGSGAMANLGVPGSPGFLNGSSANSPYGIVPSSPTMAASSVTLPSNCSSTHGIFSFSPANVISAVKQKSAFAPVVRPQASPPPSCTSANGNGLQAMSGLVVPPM
UniProt Q60722: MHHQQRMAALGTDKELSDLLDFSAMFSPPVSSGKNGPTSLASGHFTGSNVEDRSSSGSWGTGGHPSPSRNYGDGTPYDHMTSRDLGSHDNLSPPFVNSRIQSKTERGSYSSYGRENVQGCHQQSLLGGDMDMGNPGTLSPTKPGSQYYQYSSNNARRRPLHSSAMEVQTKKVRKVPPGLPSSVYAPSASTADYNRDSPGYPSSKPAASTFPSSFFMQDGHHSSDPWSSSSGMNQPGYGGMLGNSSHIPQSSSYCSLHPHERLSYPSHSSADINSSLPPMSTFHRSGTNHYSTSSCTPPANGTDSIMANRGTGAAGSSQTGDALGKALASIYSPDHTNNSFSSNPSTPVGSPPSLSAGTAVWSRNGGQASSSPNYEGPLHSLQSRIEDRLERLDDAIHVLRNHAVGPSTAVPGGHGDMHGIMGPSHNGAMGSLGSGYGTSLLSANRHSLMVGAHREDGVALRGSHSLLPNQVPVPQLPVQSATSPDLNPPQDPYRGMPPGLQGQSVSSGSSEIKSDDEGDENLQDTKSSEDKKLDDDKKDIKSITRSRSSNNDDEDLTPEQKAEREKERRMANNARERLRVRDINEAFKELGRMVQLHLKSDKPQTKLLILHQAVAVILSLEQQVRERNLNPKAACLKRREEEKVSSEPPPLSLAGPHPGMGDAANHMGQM
UniProt Q9D030: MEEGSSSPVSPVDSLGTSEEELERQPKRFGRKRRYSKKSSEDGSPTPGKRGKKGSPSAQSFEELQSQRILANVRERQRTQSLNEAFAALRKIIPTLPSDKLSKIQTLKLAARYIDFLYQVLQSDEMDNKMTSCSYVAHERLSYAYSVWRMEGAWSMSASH
UniProt Q61286: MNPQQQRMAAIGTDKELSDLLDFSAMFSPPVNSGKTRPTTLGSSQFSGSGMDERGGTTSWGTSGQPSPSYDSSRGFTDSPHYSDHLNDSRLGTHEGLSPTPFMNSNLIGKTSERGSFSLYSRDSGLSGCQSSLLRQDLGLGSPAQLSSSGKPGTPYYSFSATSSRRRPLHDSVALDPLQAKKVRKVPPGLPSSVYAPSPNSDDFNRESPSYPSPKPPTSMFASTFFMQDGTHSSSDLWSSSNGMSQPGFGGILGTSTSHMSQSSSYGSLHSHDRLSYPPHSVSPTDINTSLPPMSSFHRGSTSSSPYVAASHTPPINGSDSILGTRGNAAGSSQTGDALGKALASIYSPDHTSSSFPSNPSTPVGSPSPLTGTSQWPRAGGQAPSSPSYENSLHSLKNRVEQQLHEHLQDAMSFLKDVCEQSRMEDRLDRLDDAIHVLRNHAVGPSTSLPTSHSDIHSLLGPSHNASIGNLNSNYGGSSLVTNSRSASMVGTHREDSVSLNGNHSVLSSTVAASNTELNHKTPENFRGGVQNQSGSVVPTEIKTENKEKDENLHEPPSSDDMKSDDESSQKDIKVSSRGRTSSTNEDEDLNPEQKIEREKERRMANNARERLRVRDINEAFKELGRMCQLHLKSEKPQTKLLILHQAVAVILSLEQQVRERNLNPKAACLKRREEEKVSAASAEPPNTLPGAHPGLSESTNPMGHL
UniProt P15806: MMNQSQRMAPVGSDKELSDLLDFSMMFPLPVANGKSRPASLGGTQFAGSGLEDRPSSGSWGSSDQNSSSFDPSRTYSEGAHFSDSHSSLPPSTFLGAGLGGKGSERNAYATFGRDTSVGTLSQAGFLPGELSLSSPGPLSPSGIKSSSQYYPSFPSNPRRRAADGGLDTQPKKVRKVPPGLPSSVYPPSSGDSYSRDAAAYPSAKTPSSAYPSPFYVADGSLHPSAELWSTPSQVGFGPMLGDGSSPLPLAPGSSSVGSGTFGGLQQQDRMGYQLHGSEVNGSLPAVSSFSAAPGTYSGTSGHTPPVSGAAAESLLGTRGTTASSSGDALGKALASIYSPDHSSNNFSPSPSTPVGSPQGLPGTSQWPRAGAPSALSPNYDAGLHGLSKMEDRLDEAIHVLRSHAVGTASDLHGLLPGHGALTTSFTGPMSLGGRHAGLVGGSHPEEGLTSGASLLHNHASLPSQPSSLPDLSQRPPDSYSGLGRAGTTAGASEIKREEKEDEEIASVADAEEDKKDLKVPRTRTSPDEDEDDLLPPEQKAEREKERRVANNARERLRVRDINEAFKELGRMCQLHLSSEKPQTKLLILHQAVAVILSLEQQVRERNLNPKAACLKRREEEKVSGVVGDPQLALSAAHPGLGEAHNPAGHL

How the values were obtained:
[1] = molecular target: human TWIST1 (hTWIST1) stably over-expressed in MDCK cells (human) (UniProt Q15672); experiment: co-IP
[2] = molecular target: HA-tagged TAL1 (pCMV-Tal1-HA) (UniProt P22091); experiment: co-IP
[3] = molecular target: HA-tagged SIM2 (pCMV-Sim2-HA) (UniProt Q61079); experiment: co-IP
[4] = molecular target: T1, HA-tagged EBF1 (pCMV-Ebf1-HA) (UniProt Q07802); experiment: co-IP
T1 sequence: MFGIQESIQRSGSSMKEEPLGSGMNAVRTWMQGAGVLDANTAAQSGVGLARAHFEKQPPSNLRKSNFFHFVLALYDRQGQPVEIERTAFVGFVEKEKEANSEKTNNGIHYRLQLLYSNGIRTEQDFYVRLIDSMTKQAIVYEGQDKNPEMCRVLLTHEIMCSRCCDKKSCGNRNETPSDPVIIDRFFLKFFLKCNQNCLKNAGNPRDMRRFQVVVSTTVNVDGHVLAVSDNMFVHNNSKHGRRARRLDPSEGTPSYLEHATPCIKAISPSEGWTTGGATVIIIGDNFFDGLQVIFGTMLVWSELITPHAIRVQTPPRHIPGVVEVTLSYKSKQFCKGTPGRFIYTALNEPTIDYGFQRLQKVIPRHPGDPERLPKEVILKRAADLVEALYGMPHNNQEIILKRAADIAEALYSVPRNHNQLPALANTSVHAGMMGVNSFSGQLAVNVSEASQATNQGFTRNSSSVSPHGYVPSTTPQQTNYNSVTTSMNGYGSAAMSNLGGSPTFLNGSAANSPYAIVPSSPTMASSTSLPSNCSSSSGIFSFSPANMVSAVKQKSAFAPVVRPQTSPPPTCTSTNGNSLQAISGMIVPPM

[5] = molecular target: HA-tagged EBF3 (pCMV-Ebf3-HA) (UniProt O08791); experiment: co-IP
[6] = molecular target: HA-tagged TCF4 (pCMV-Tcf4-HA) (UniProt Q60722); experiment: co-IP
[7] = molecular target: HA-tagged TWIST2 (pCMV-Twist2-HA) (UniProt Q9D030); experiment: co-IP
TCF12-CrN173 (mouse) = TCF12-CrN173 (mouse) (UniProt Q61286); experiment: split reporter
[8] = molecular target: wild-type TWIST1 BiFC fusions (TWIST1-CC155 and TWIST1-VN173) (mouse) (UniProt P26687); experiment: split reporter

“HA-tagged EBF3 (pCMV-Ebf3-HA) (from UniProt O08791 1-596)” was tested, and the binding [1] was “binds”.

In the case of “HA-tagged SIM2 (pCMV-Sim2-HA) (from UniProt Q61079 1-657)”, the binding [1] is reported as “binds”.

With “HA-tagged TAL1 (pCMV-Tal1-HA) (from UniProt P22091 1-329)” the binding [1] was “binds”.

For “HA-tagged TCF3 (pCMV-Tcf3-HA) (from UniProt P15806 1-651)”, the binding [1] was “binds”.

In the case of “HA-tagged TWIST2 (pCMV-Twist2-HA) (from UniProt Q9D030 1-160)”, the binding [1] is reported as “binds”.

In the case of “human TWIST1 (hTWIST1) stably over-expressed in MDCK cells (from UniProt Q15672 1-202)”, the binding [2] is reported as “binds”, the binding [3] is reported as “binds” and the binding [4] is reported as “binds”. For the same molecule, the binding [5] was “binds”, the binding [6] was “binds” and the binding [7] was “binds”.

B1: wild-type TWIST1 BiFC fusions (TWIST1-CC155 and TWIST1-VN173) (protein, UniProt P26687 1-206)
chain: MMQDVSSSPVSPADDSLSNSEEEPDRQQPASGKRGARKRRSSRRSAGGSAGPGGATGGGIGGGDEPGSPAQGKRGKKSAGGGGGGGAGGGGGGGGGSSSGGGSPQSYEELQTQRVMANVRERQRTQSLNEAFAALRKIIPTLPSDKLSKIQTLKLAARYIDFLYQVLQSDELDSKMASCSYVAHERLSYAFSVWRMEGAWSMSASH
With B1 the binding (TCF12-CrN173 (mouse)) was “binds” and the binding [8] was “binds”.

B2: HA-tagged EBF1 (pCMV-Ebf1-HA) (protein, UniProt Q07802 1-591)
chain: T1 sequence
In the case of B2, the binding [1] is reported as “binds”.
